Measured values as given in the supplement of paper PMC7858590.
Where “and” joins values, the source holds several entries; their conditions need not be identical. Identical values can stand only once. ± gives the standard deviation of the averaged measurements. In all, about 3,800 compounds were measured (“cell shape (eccentricity) Z-score vs DMSO control”: median about 1.1, lowest 2% from about -4.7 on). The list shows a part of the results.

System: human monocyte-derived macrophages (M0)
Test: cell shape (eccentricity) Z-score vs DMSO control; higher = more elongated, M2-like morphology
Conditions: 20 µM; 24 h; macrophage state: M0 (M-CSF)

Compound | cell shape (Z-score)
O=C(Nc1ccncc1)c1cc([N+](=O)[O-])ccc1Cl | 5.45
COc1cc(O)ccc1C(C)=O | 1.8
CC1(C)CC[C@]2(C(=O)O)CC[C@]3(C)C(=CCC4[C@@]5(C)CC[C@H](O[C@@H]6O[C@H](C(=O)O)[C@@H](O[C@@H]7OC[C@@H](O)[C@H](O)[C@H]7O)[C@H](O)[C@H]6O)C(C)(C)C5CC[C@]43C)C2C1O (some centres undefined) | -0.342 ± 0.58
NC(=O)C1(N2CCCCC2)CCN(CCCC(=O)c2ccc(F)cc2)CC1 | -0.00699
COC(=O)Nc1ccc2[nH]cc(CCNC(C)=O)c2c1 | -0.0575
C#CC1(OCC(O)CN2CCN(c3ccccc3OC)CC2)CCCCC1 (centres undefined) | -0.311
CC1=CC(CC2(C)OC2COc2c3occc3cc3ccc(=O)oc23)OC1=O (centres undefined) | 0.262
O=c1c(OC2OCC(O)C(O)C2O)c(-c2ccc(O)c(O)c2)oc2cc(O)cc(O)c12 (centres undefined) | 0.344
C[C@H](NC[C@H](O)CP(=O)(O)Cc1ccccc1)c1ccc(Cl)c(Cl)c1 | -2.07
CCN(CC)CCOCCOC(=O)C(CC)(CC)c1ccccc1 | 0.26
COc1ccc(S(=O)(=O)Nc2nnc(CC(C)C)s2)cc1 | 1.84
CC(C)N1CCN(c2ccc(OC[C@H]3CO[C@](Cn4cncn4)(c4ccc(Cl)cc4Cl)O3)cc2)CC1 | -0.671
COc1cc(C=O)cc2c1[nH]c1ccccc12 | -2.18 ± 4.6
NS(=O)(=O)OC[C@@H]1C[C@@H](n2ccc3c(N[C@H]4CCc5ccccc54)ncnc32)C[C@@H]1O | -2.97
COc1c(C)c2c(c(O)c1C/C=C(\C)CCC(=O)OCCN1CCOCC1)C(=O)OC2 | 0.549
CC1OC(OC2C(OC3C(O[C@H]4CC[C@@]5(C)C(CC[C@]6(C)C5CC=C5[C@@H]7CC(C)(C)C[C@@H](O)[C@]7(C)CC[C@]56C)C4(C)C)OC(C(=O)O)C(O)C3O)OC(CO)C(O)C2O)C(O)C(O)C1O (some centres undefined) | -1.34
COc1cc([C@@H]2c3cc4c(cc3[C@@H](O[C@@H]3O[C@@H]5CO[C@@H](C)O[C@H]5[C@H](O)[C@H]3O)[C@H]3COC(=O)[C@H]23)OCO4)cc(OC)c1O | 1.27 and 1.94 and 2.14
CC[C@@H](CO)NCCN[C@@H](CC)CO | 1.57
COc1cc(/C(C)=C/C(C)CCCC(=O)O)oc(=O)c1C (centres undefined) | 3.54
CC(=O)NC(Cc1c[nH]c2cc(Cl)ccc12)C(=O)O (centres undefined) | 0.772
c1cnc(SCc2cccnc2)nc1 | 0.38
COCC1=C(C(=O)OC(C)OC(=O)OC(C)C)N2C(=O)[C@@H](NC(=O)/C(=N/OC)c3csc(N)n3)[C@H]2SC1 (some centres undefined) | 3.87
COc1cc2occ(-c3ccc4c(c3)OCO4)c(=O)c2c(OC)c1OC | 1.55
C/C=C/C=C/C(=O)c1cc(C)c(O)c(C)c1O | 1.03
COc1cc([C@@H]2C3C=C([C@H]4Oc5cc(O)cc(O)c5C(=O)[C@@H]4O)[C@H]4[C@@H]2COC4(O)C3=O)ccc1O | 0.475
COc1ccc2oc3ccccc3c(=O)c2c1 | 3.87
C[C@@H]1O[C@@H](O[C@H]2[C@H](Oc3cc(O)c4c(c3)O[C@H](c3ccc(O)c(O)c3)CC4=O)O[C@H](CO)[C@@H](O)[C@@H]2O)[C@H](O)[C@H](O)[C@H]1O | -0.575

Compound | cell shape (Z-score)
CC1=CCC(C(C)(C)O[C@@H]2O[C@H](CO[C@@H]3O[C@H](COC(=O)c4cc(O)c(O)c(O)c4)[C@@H](O)[C@H](O)[C@H]3O)[C@@H](O)[C@H](O)[C@H]2O)CC1 (some centres undefined) | -0.399
CC(O)Cn1cnc2c1c(=O)n(C)c(=O)n2C (centres undefined) | 2.87
COc1cc(C2Oc3c(OC)cc(CCCO)cc3C2CO)ccc1O[C@H]1O[C@H](C)[C@@H](O)[C@H](O)[C@@H]1O (some centres undefined) | 0.0375
CC(C)[C@@H]1CC[C@@]2(C)CCC[C@@](C)(O)[C@@H]2[C@H]1OC(=O)/C=C/c1ccccc1 | 2.15
C=Cc1ccc(O[C@@H]2O[C@H](CO[C@@H]3O[C@@H](C)[C@H](O)[C@@H](O)[C@H]3O)[C@@H](O)[C@H](O)[C@H]2O)cc1 | 0.0578 ± 0.94
CC1CC(C)CN(c2cc(Nc3ccccc3C(=O)O)c3c4c(onc24)-c2ccccc2C3=O)C1 (centres undefined) | 3.59
CC1(C)CC[C@]2(C(=O)O)CC[C@]3(C)C(=CCC4[C@@]5(C)C[C@@H](O)[C@H](O)[C@@](C)(CO)C5[C@H](O)C[C@]43C)[C@@H]2C1 (some centres undefined) | 0.344 ± 0.85
CNC(=Nc1ccc(C2=NNC(=O)CC2C)cc1)NC#N (centres undefined) | 3.06
CCCN(CCC)S(=O)(=O)c1ccc(C(=O)O)cc1 | 2.06
C=C(C(=O)O)[C@@H]1CC[C@@]2(C)CC[C@@H](O)C(=C)C2C1 (some centres undefined) | 0.351
O=C(O)Cc1cccc(OCCCN(Cc2cccc(C(F)(F)F)c2Cl)CC(c2ccccc2)c2ccccc2)c1 | 1.13
N#CC(=Cc1ccc(O)c(O)c1)C(=O)OCCc1cccs1 | 3.95
CN(C)CC(=O)N[C@@H]1CC[C@@H](CCNC(=O)Nc2ccc(F)cc2)O[C@H]1CO | 1.53
Cc1cc(N2CCCCC2)nc2ccccc12 | 0.281
O=c1cc(-c2ccc(O)c(O)c2)c2c(O[C@@H]3O[C@H](CO)[C@@H](O)[C@H](O)[C@H]3O)cc(O)cc2o1 | 1.33
CCNC(=O)[C@@H]1CCCN1C(=O)[C@H](CCCNC(=N)N)NC(=O)[C@H](CC(C)C)NC(=O)[C@@H](COC(C)(C)C)NC(=O)[C@H](Cc1ccc(O)cc1)NC(=O)[C@H](CO)NC(=O)[C@H](Cc1c[nH]c2ccccc12)NC(=O)[C@H](Cc1cnc[nH]1)NC(=O)C1CCC(=O)N1 (some centres undefined) | -0.749
O=C(CCCCCCCn1cc(-c2cccnc2)nn1)Nc1ccccc1-c1ccccc1 | 3.26
COc1ccccc1N1CCN(CCn2c(=O)[nH]c3c([nH]c4ccccc43)c2=O)CC1 | 1.24
COc1ccc([C@@]2(O)c3c(ccc(/C=C/C4(C)CCC(C)(C)CO4)c3O)NC(=O)[C@@H]2OC)cc1 (some centres undefined) | 2.91
CCN(CC)CCCC(C)Nc1nc(C)cc(Nc2ccc3nc(C)cc(N)c3c2)n1 (centres undefined) | 4.66
CC1OC(O[C@H]2CC[C@@]3(C)C(CC[C@]4(C)C3CC=C3C5CC(C)(C)CC[C@]5(C(=O)OC5OC(CO)C(OC6OC(CO)C(O)C(O)C6O)C(O)C5O)CC[C@]34C)C2(C)C)C(O)C(O)C1OC1OCC(O)(COC2OCC(O)C(OC3OCC(OC4OCC(O)(CO)C4O)C(O)C3O)C2O)C1O (some centres undefined) | 0.323
CC(C)(C)NCC(O)COc1cccc2[nH]c(=O)[nH]c12 (centres undefined) | 3.02
COC(=O)/C=C/C(=O)N(O)CCCCNCc1ccc(COC(=O)Nc2cccc3ccccc23)cc1 | 2.34
COC(=O)C[C@H]1[C@]2(C)C3=C(C)[C@H](c4ccoc4)C[C@H]3O[C@@H]2[C@H](OC(C)=O)C2[C@](C)(C(=O)OC)C=CC(=O)[C@@]21C (some centres undefined) | 0.979
CC(C)C[C@H](NC(=O)[C@H](Cc1ccccc1)C[C@@H](O)[C@H](Cc1ccccc1)NC(=O)OC(C)(C)C)C(=O)N[C@@H](Cc1ccccc1)C(N)=O | -0.393
CC(=O)[C@H]1CCC2[C@@H]3CCC4=CC(=O)CC[C@]4(C)C3CC[C@@]21C (some centres undefined) | 2.99
C/C=C/C1C2OC3=C(C(=O)OC3(C)O)C(=O)C1(C)C1CC(O)C(C)CC1C2O (centres undefined) | 0.504

Compound | cell shape (Z-score)
Cc1cnc(Nc2ccc(OCCN3CCCC3)cc2)nc1Nc1cccc(S(=O)(=O)NC(C)(C)C)c1 | 11.9
CC(C)(C)n1nc(-c2cccc3ccccc23)c2c(N)ncnc21 | 16.7
COc1ccc(C(=O)/C=C/c2ccccc2)cc1 | 3.14
OCCn1cc(-c2ccc3c(c2)CC/C3=N\O)c(-c2ccncc2)n1 | 3.67
Cc1cc(Cn2cnc3c2CC(C(=O)O)N(C(=O)C(c2ccccc2)c2ccccc2)C3)ccc1N(C)C (centres undefined) | 0.582
CC(=O)Oc1cccc(C)c1 | 2.42
Cc1onc(-c2ccccc2)c1-c1ccc(S(N)(=O)=O)cc1 | -0.0545
O=c1ncccn1[C@@H]1O[C@H](CO)[C@H](O)C1O (some centres undefined) | 6.32
C[C@@H]1CN(c2c(F)c(F)c3c(=O)c(C(=O)O)cn(C4CC4)c3c2F)C[C@H](C)N1 | 1.23
Nc1ccc(S(=O)(=O)Nc2ncccn2)cc1 | 2.8
O=C1c2ccccc2S(=O)(=O)N1CCCN1CCN(c2ncccn2)CC1 | -0.907
CC(=O)N(C)C1(c2ccccc2)CCN(CCC[C@]2(c3ccc(Cl)c(Cl)c3)CCCN(C(=O)c3ccccc3)C2)CC1 | 1.35
CC(=O)OCC(=O)[C@@]12OC(C)(C)O[C@@H]1CC1C3C[C@H](F)C4=CC(=O)C=C[C@]4(C)[C@@]3(F)[C@@H](O)C[C@@]12C (some centres undefined) | -2.9
COc1cc2c(c(OC)c1OC)CCc1cc(O)c(O)cc1-2 | -0.208
COc1cccc2c1C(=O)CC(c1ccccc1)O2 (centres undefined) | 1.75
O=C1C=CC(=O)C2=C1C1c3ccccc3C2c2ccccc21 | 1.84
Cc1onc(C(=O)N2CCN(C(c3ccc(Cl)cc3)c3ccc(Cl)cc3)CC2)c1[N+](=O)[O-] | -0.965
COc1ccc(/C=C/C(=O)O[C@H]2[C@H](O[C@H]3[C@@H]4C=CO[C@@H](O[C@@H]5O[C@H](CO)[C@@H](O)[C@H](O)[C@H]5O)[C@@H]4[C@@]4(CO)O[C@@H]34)O[C@@H](C)[C@H](O)[C@H]2OC(C)=O)cc1 | 0.694 ± 0.82
CCC(C)n1ncn(-c2ccc(N3CCN(c4ccc(OC[C@H]5CO[C@](Cn6cncn6)(c6ccc(Cl)cc6Cl)O5)cc4)CC3)cc2)c1=O (some centres undefined) | 0.541
OC[C@H]1O[C@@H](OCc2ccccc2)[C@H](O)[C@@H](O)[C@@H]1O | 2.86
H-RKDVY-OH | 1.52
O=C(c1ccccc1)c1ccc2n1CCC2C(=O)O (centres undefined) | 0.0328
c1ccc(N2CCN(Cc3nc4ccccc4[nH]3)CC2)nc1 | -0.725
COC(=O)C1=CO[C@@H](OC2OC(O)C(O)C(O)C2CO)[C@H]2[C@@H]1C=CC21C=C([C@H](C)OC(=O)/C=C/c2ccc(OC3OC(CO)C(O)C(O)C3O)cc2)C(=O)O1 (some centres undefined) | -0.889
CCCCCCCCCCCCC/C=C/[C@@H](O)[C@H](CO)NC(=O)CCCCC | 0.547
